# Results as given in US20090104220A1, “Method to Make a Peptide-Carrier Conjugate with a High Immunogenicity” (priority 2003, published 2009).
# Test system: OMPC
# Assay: Conjugation load of peptide on OMPC by amino acid analysis of the conjugate
# Design: species or system Neisseria meningitidis
# Settings: large-scale sSMCC conjugation, 17 h at 4° C.
row,Substance,level of incorporation
1,"GLFGAIAGFIENGWEGMVDGCE-OH (GLFGAIAGFIENGWEGMVDGCEH) [HA2-25, pI-engineered HA2-9: basic tail deleted, C-terminal glutamate]",2436 moles peptide/mol OMPC
2,STMGARSMTLTVQARQLβC—NH2 [PR],200 moles peptide/mol OMPC
3,Suc-STMGARSMTLTVQARQLβC—NH2 [Succinyl-PR],1360 moles peptide/mol OMPC
